Experimental data taken from patent US8563500B2, “Methods and compounds for treating diseases caused by reactive oxygen species” (Deutsches Krebsforschungszentrum Stiftung des Offentlichen …, priority 2007, dated 2013).
Some entries share one result that the patent states for a list of compounds. At least one compound was matched to its structure with a doubt left.

Tested on: Jurkat J16-145 cells
Experiment: Activation-induced (PMA or anti-CD3) ROS generation, DCFDA oxidation by FACS
Format: cell-based, human

## CN(C)CCCn1cc(C2=C(c3c[nH]c4ccccc34)C(=O)NC2=O)c2ccccc21 [BIM, bisindolylmaleimide I]
  blockage of the activation-induced oxidative signal (increase in MFI of DCFDA): more than 95%
